# Where a sequence shows no end group, the ends are not given.
# Assay: peptide made by a vendor
# Details: whole synthesis, HPLC; mass spectrographic analysis
sequence,measurement,value
MRKEFHNVLSSGQLLADKRPARDYNRK (listed as Streptococcus pneumoniae),purity (crude or final not stated),90% pure
